In US20100021390A1, “Fluorescent Analogs Of The Islet Amyloid Polypeptide” (The Research Foundation of State University of New York, priority 2008, published 2010):

Key:
[1] = p-Cyanophenylalanine fluorescence kinetic assay of amyloid formation by the peptides; assay type: physicochemical; settings: peptide alone, pH 7.4
Excerpt: Wild-type IAPP, IAPP-Y37FC≡N and a G-FCN-A-A tetrapeptide were synthesized and the disulfide bond in IAPP was formed using dimethyl sulfoxide (DMSO) based oxidation as described in Abedini et al., Analytical Biochemistry 351, 181-186 (2006) incorporated herein by reference. The synthesis of peptides is well known in the art. Synthesizers such as the Applied Biosystems 433A are commercially available with ample instructions for use and are generally accessible to practitioners in the art. Fmoc-4-cyanoPhe was obtained from NovaBiochem. Peptides were purified via reverse phase HPLC and the identities confirmed by MALDI mass spectroscopy. Thioflavin-T fluorescence experiments were performed with a Jobin Yvon Horiba fluorescence spectrophotometer or with an Applied Phototechnology fluorescence spectrophotometer. P-cyanoPhe fluorescence was excited at 240 nm and detected at 296 nm with instrument slit widths of 10 nm on an Applied Photon Technologies fluorimeter. […]
Fibrillization reactions were initiated by diluting the stock 50-fold into buffered (20 mM Tris-HCl, pH 7.4) aqueous solution. […] The spectrum is the average of three repeats in a 0.1 cm quartz cuvette and recorded over a range of 190-250 nm, at 1 nm intervals, with an averaging time of three seconds per scan. […]

[2] = TEM of fibrils formed by the peptides; assay type: physicochemical; settings: 2% HFIP, 20 mM Tris-HCl, pH 7.4

Substance	time course of p-cyanophenylalanine fluorescence compared with thioflavin-T experiment [1]	TEM images / morphology of amyloid fibrils compared with hIAPP [2]
KCNTATCATQRLANFC≡NNLVHSSNNFGAILSSTNVGSNTY (KCNTATCATQRLANFLVHSSNNFGAILSSTNVGSNTY; p-cyanophenylalanine at position 15 (replaces Phe-15; written as F in the residues); disulfide bond linking residues 2 and 7 and amidated C-terminus as told for hIAPP peptides) [hIAPP-F15FC≡N, human IAPP with p-cyanophenylalanine at position-15]	identical	the same
KCNTATCATQRLANFLVHSSNNFGAILSSTNVGSNTFC≡N (p-cyanophenylalanine at position 37 (replaces Tyr-37; written as F in the residues); disulfide bond linking residues 2 and 7; amidated C-terminus) [hIAPP-Y37FC≡N, human IAPP with Tyr-37 replaced with p-cyanoPhe]	identical	indistinguishable
